Laboratory results from the supplement of paper PMC6411743.
± gives the standard deviation of the averaged measurements. This is a selection; strong and weak results do not stand in their true shares.

Amino acid sequences for entries named in this document (tags omitted). A change or cut given only in a name is not applied to a line headed by its entry.
UniProt Q08257: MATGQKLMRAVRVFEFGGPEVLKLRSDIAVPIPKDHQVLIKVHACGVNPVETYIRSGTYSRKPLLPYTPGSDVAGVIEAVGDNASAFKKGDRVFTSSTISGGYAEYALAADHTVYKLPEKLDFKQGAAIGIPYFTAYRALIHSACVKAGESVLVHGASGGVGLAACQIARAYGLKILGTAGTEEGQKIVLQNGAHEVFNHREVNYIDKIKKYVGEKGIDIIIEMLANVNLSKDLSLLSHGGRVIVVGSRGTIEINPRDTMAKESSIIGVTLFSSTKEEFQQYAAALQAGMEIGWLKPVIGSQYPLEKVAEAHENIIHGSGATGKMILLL
UniProt P61006: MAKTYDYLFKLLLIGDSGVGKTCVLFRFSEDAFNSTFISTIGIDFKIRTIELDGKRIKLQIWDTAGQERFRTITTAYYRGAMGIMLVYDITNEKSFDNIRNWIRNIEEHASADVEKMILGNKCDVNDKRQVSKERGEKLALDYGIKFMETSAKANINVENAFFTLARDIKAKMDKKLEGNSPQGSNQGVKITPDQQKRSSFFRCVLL
UniProt P62937, whole entry, looked up: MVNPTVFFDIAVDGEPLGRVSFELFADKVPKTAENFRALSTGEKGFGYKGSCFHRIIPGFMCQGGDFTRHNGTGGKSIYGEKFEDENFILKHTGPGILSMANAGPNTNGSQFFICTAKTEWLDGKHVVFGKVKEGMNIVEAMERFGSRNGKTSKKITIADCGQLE
UniProt P57088: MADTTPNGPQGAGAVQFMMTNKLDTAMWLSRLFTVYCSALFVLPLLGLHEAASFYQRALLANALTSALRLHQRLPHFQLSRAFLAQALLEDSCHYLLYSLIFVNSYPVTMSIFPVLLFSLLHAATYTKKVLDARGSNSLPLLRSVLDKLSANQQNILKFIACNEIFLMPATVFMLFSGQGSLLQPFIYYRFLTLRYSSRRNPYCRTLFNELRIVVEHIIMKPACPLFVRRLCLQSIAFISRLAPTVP
UniProt P61966: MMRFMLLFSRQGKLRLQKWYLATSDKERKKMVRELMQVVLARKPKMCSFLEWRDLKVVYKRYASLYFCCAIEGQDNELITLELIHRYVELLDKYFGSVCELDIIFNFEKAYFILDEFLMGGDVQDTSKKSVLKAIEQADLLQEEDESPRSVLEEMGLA
UniProt P82094: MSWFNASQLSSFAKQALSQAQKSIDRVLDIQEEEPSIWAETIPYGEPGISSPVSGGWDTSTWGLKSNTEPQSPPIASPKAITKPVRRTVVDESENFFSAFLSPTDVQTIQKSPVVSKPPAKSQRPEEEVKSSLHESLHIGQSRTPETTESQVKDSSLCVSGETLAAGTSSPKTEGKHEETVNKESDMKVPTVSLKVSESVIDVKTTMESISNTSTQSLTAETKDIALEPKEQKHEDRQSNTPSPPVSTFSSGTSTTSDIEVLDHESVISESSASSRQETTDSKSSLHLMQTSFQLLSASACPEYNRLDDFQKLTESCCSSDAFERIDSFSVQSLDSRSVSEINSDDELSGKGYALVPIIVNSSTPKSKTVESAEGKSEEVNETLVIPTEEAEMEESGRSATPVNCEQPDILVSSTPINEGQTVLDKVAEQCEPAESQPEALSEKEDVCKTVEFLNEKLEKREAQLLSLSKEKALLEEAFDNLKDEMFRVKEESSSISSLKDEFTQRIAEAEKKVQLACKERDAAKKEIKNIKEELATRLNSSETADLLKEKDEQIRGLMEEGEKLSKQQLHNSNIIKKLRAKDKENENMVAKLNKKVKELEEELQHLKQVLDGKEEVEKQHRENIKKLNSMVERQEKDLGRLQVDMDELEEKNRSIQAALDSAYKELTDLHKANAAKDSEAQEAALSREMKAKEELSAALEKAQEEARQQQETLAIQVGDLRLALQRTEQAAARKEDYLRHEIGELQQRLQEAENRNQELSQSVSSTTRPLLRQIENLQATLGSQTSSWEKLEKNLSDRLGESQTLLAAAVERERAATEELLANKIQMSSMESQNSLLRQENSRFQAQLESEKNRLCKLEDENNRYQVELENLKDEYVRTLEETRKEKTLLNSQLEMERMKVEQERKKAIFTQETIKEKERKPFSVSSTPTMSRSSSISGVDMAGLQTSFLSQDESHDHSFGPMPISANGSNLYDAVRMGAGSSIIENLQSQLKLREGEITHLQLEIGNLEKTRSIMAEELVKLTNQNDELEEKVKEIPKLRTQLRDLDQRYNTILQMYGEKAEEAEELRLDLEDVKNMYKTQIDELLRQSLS
UniProt P63146, whole entry: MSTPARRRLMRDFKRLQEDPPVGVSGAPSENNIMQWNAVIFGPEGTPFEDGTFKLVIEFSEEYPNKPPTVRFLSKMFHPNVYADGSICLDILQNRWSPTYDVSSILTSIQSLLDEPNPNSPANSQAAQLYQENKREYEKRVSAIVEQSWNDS
UniProt Q96PN7: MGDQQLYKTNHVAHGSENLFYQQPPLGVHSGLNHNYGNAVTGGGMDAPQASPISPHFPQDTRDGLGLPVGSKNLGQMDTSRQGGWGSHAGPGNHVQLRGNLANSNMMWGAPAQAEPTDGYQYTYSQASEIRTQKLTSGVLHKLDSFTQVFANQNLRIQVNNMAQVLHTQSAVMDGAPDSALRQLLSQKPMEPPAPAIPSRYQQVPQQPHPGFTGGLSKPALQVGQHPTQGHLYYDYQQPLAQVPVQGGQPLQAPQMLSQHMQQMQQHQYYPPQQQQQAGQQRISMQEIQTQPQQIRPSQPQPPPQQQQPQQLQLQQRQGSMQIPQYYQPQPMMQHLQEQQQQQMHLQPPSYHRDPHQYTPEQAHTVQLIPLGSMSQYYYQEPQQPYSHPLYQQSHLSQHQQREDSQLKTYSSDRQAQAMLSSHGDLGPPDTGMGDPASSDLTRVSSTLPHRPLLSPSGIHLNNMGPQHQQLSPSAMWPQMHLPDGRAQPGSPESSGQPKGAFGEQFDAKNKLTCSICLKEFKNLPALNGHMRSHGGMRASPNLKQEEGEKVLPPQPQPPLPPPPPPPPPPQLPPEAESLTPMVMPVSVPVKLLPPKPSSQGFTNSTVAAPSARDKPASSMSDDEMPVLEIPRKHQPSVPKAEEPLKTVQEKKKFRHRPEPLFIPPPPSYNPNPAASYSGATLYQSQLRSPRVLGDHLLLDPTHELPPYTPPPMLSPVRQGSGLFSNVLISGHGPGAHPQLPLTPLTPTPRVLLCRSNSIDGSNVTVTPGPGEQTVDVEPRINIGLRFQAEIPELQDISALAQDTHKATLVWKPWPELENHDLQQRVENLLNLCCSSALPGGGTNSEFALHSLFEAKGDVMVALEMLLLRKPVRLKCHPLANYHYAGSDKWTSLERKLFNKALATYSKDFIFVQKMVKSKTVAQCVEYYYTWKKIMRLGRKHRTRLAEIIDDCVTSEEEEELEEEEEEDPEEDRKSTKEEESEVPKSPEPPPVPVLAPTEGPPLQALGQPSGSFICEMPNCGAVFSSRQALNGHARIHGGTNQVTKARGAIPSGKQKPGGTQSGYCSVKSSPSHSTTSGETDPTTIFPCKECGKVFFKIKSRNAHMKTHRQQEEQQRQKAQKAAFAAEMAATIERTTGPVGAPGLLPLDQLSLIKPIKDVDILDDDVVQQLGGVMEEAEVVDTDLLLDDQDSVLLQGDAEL
UniProt P60520, whole entry: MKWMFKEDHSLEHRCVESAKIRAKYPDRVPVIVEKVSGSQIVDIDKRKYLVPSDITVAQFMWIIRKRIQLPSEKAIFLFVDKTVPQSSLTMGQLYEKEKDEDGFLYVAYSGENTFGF
UniProt Q07820, whole entry: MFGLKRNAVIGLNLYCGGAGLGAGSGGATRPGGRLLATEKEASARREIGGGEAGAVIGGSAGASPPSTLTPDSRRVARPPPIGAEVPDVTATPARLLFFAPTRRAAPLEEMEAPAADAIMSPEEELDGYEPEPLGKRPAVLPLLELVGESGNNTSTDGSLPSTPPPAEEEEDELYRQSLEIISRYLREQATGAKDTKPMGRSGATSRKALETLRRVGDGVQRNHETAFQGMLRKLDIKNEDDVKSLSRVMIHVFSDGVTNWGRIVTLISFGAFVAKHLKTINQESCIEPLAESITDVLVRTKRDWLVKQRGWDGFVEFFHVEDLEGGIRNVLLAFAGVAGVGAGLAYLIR
UniProt Q06203, whole entry: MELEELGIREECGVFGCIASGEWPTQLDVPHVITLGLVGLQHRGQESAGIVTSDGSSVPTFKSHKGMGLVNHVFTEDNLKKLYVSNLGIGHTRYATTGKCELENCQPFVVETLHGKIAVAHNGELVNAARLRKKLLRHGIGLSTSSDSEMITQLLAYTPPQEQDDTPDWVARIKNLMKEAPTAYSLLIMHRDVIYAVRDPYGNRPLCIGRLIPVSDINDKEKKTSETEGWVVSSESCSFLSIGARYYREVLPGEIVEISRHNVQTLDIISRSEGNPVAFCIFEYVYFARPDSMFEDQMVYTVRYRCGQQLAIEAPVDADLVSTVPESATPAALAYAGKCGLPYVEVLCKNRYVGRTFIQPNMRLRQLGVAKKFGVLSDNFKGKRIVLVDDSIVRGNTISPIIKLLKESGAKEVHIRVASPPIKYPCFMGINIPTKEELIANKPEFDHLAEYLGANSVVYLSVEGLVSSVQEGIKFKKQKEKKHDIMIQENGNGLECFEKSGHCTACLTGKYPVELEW
UniProt P68104, whole entry: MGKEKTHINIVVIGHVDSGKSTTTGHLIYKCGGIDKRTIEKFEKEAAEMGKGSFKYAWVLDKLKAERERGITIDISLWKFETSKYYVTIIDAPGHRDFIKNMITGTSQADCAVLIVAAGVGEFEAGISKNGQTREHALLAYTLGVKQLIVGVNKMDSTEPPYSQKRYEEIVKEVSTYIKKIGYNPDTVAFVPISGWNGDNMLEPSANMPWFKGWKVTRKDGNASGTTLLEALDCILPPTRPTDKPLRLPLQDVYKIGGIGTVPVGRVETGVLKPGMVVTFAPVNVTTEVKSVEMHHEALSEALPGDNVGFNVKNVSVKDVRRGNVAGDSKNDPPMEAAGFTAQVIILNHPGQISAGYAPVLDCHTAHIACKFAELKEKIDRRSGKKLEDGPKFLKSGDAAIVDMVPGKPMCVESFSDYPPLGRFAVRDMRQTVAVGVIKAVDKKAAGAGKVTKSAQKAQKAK
UniProt Q01813: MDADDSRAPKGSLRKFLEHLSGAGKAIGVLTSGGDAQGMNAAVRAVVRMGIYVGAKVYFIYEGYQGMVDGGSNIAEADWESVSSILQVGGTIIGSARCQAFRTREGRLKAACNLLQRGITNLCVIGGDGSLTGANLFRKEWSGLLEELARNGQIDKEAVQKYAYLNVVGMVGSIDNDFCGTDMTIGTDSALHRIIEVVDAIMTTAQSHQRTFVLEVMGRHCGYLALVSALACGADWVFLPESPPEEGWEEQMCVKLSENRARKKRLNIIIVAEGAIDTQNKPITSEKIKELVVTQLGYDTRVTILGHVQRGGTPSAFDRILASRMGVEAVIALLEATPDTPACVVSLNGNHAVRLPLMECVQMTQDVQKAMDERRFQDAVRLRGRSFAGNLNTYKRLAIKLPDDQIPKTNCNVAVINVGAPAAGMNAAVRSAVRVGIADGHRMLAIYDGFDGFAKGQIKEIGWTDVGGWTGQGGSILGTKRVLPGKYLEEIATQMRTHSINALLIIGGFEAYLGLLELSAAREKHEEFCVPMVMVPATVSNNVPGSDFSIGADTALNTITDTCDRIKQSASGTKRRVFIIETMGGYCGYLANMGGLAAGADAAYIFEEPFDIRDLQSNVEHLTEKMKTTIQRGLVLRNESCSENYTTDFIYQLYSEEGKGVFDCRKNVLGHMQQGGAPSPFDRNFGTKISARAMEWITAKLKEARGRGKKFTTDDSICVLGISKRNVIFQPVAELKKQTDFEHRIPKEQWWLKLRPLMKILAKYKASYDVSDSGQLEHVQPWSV

Compound: Nc1ncnc2c1ncn2[C@@H]1O[C@H](COP(=O)(O)OP(=O)(O)NP(=O)(O)O)[C@@H](O)[C@H]1O [adenylyl imidodiphosphate]
Experiment: NP40-soluble protein abundance relative to vehicle (solubility fold change) (ratio); higher = more soluble protein in presence of AMP-PNP
Outline: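 Data come from three independent experiments in which Dounce-homogenised Jurkat crude lysate was treated at eight concentrations from 0.1 to 10 mM. Treatment ran 10 min at room temperature and then 3 min at 37 °C, after which 0.8% NP40 and benzonase were added for 60 min at 4 °C before ultracentrifugation. The supernatant underwent TMT labelling and LC-MS/MS, and vsn-normalised intensities were expressed as fold change against the detergent-processed vehicle in each replicate.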

Target	NP40-soluble protein abundance (concentration: 1mM)	NP40-soluble protein abundance (concentration: 2mM)	NP40-soluble protein abundance (concentration: 4mM)	NP40-soluble protein abundance (concentration: 6mM)	NP40-soluble protein abundance (concentration: 8mM)	NP40-soluble protein abundance (concentration: 10mM)
CRYZ (UniProt Q08257)	0.958 ± 0.0032	0.91 ± 0.063	0.971 ± 0.033	1.03 ± 0.073	1.05 ± 0.04	1.03 ± 0.024
RAB8A (UniProt P61006)	1 ± 0.029	0.98 ± 0.04	0.977 ± 0.071	0.952 ± 0.016	0.947 ± 0.017	0.951 ± 0.05
UniProt P62937 and related entries	1.06 ± 0.18	0.879 ± 0.12	1.03 ± 0.18	0.856 ± 0.11	1.01 ± 0.17	0.828 ± 0.073
TMEM33 (UniProt P57088)	0.962 ± 0.042	0.925 ± 0.031	0.989 ± 0.066	1.09 ± 0.11	1.15 ± 0.097	1.1 ± 0.079
UniProt P61966	1.02 ± 0.026	1.07 ± 0.095	1.06 ± 0.072	1.05 ± 0.051	1.06 ± 0.046	1.05 ± 0.078
UniProt P82094 and related entries	1.04 ± 0.037	1.08 ± 0.046	1.03 ± 0.055	0.987 ± 0.037	0.98 ± 0.049	0.991 ± 0.054
UniProt P63146	1.01 ± 0.02	1.017 ± 0.0041	1.012 ± 0.0021	0.9736 ± 0.0039	1.02 ± 0.028	1.018 ± 0.0042
Q05GC8 and related entries (UniProt Q96PN7+Q05GC8)	1.023 ± 0.0092	1.04 ± 0.033	0.9782 ± 0.0044	0.991 ± 0.014	0.971 ± 0.015	1.012 ± 0.0088
UniProt P60520	1 ± 0.038	0.951 ± 0.079	0.975 ± 0.054	1.01 ± 0.048	1.03 ± 0.031	1.02 ± 0.039
UniProt Q07820 and related entries	0.988 ± 0.031	0.995 ± 0.047	1.01 ± 0.057	0.992 ± 0.039	1 ± 0.026	0.99 ± 0.027
PPAT (UniProt Q06203)	0.923 ± 0.054	0.817 ± 0.11	0.916 ± 0.03	0.921 ± 0.063	0.956 ± 0.043	0.906 ± 0.074
MRPS25 (UniProt P82663)	1.03 ± 0.041	1.01 ± 0.014	1.02 ± 0.07	0.975 ± 0.067	0.962 ± 0.068	0.961 ± 0.069
UniProt P68104 and related entries	0.977 ± 0.012	0.95 ± 0.021	0.95 ± 0.053	1.01 ± 0.022	1 ± 0.033	0.985 ± 0.02
PFKP (UniProt Q01813)	0.969 ± 0.021	0.902 ± 0.11	0.963 ± 0.037	1.01 ± 0.025	1.04 ± 0.019	1.01 ± 0.054
UniProt P62277	0.9222 ± 0.0085	0.882 ± 0.048	0.901 ± 0.083	0.895 ± 0.038	0.829 ± 0.094	0.897 ± 0.13

Nothing new here: an excerpt of the list.
Target	NP40-soluble protein abundance (concentration: 1mM)	NP40-soluble protein abundance (concentration: 2mM)	NP40-soluble protein abundance (concentration: 4mM)	NP40-soluble protein abundance (concentration: 6mM)	NP40-soluble protein abundance (concentration: 8mM)	NP40-soluble protein abundance (concentration: 10mM)
UniProt P63146	1.01 ± 0.02	1.017 ± 0.0041	1.012 ± 0.0021	0.9736 ± 0.0039	1.02 ± 0.028	1.018 ± 0.0042
Q05GC8 and related entries (UniProt Q96PN7+Q05GC8)	1.023 ± 0.0092	1.04 ± 0.033	0.9782 ± 0.0044	0.991 ± 0.014	0.971 ± 0.015	1.012 ± 0.0088
